Laboratory results reported in publication PMC10452424.
No constants are given. Whether binding was seen depends on the method and setting. Binding seen in cells or lysates may run through a third protein. Some entries that bind do so weakly or less than the wild type. Tags and fused reporters may be left off the sequences shown.

Amino acid sequences for entries named in this document (tags omitted).
UniProt P38398: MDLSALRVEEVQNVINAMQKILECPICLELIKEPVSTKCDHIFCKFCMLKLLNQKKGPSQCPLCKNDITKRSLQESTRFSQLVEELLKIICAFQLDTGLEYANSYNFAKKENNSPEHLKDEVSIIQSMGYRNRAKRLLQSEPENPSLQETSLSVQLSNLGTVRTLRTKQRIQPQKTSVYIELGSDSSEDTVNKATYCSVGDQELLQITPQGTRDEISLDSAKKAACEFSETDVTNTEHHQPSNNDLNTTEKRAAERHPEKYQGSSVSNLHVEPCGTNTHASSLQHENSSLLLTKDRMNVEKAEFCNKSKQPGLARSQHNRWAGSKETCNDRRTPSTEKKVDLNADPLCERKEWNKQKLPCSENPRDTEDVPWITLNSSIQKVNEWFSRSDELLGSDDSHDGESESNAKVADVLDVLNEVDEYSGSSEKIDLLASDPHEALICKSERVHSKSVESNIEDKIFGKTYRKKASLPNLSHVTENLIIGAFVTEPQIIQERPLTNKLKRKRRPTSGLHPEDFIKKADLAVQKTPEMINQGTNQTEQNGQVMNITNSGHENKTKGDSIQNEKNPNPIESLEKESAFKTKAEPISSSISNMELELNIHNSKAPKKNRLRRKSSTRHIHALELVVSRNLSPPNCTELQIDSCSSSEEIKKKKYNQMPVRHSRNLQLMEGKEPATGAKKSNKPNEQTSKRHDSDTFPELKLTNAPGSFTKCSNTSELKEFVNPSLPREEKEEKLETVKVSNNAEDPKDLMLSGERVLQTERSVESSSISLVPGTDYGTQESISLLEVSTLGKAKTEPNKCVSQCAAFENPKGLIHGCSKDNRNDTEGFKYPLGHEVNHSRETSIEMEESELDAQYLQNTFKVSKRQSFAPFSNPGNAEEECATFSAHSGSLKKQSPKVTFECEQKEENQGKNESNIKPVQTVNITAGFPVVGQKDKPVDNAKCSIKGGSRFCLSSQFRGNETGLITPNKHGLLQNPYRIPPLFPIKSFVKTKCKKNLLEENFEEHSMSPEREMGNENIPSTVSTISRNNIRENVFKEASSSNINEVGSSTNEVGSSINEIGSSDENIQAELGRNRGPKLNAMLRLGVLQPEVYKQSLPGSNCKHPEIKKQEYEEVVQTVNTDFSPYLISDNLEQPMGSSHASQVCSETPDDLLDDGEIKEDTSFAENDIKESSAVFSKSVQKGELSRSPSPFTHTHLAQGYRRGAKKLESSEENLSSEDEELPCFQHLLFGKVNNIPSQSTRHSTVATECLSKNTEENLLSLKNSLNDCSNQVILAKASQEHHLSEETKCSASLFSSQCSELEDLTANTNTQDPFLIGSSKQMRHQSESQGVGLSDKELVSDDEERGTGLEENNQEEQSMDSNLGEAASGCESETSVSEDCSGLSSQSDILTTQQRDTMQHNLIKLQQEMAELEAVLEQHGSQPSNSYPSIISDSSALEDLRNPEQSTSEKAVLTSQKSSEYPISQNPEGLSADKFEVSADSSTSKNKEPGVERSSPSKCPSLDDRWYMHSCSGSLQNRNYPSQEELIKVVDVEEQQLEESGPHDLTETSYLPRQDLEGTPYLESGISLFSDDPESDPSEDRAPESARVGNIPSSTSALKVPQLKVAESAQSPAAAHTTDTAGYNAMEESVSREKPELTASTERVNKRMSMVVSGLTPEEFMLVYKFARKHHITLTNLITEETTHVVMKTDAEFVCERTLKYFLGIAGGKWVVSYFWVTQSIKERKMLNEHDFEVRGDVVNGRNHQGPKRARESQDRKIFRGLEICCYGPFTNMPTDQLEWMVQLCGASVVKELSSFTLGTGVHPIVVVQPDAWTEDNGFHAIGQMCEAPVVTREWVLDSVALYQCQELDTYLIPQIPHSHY

B1: HA-tagged NORE1A (full-length) (protein, UniProt Q8WWW0-1 1-418)
chain: MAMASPAIGQRPYPLLLDPEPPRYLQSLSGPELPPPPPDRSSRLCVPAPLSTAPGAREGRSARRAARGNLEPPPRASRPARPLRPGLQQRLRRRPGAPRPRDVRSIFEQPQDPRVPAERGEGHCFAELVLPGGPGWCDLCGREVLRQALRCTNCKFTCHPECRSLIQLDCSQQEGLSRDRPSPESTLTVTFSQNVCKPVEETQRPPTLQEIKQKIDSYNTREKNCLGMKLSEDGTYTGFIKVHLKLRRPVTVPAGIRPQSIYDAIKEVNLAATTDKRTSFYLPLDAIKQLHISSTTTVSEVIQGLLKKFMVVDNPQKFALFKRIHKDGQVLFQKLSIADRPLYLRLLAGPDTEVLSFVLKENETGEVEWDAFSIPELQNFLTILEKEEQDKIQQVQKKYDKFRQKLEEALRESQGKPG
B2: NORE1A-INT domain (AA 170-272), HA-tagged (domain or fragment, UniProt Q8WWW0-1 170-272)
chain: CSQQEGLSRDRPSPESTLTVTFSQNVCKPVEETQRPPTLQEIKQKIDSYNTREKNCLGMKLSEDGTYTGFIKVHLKLRRPVTVPAGIRPQSIYDAIKEVNLAA

Molecular target: GFP-tagged BRCA1 (UniProt P38398)
Assay: co-IP; HEK-293T cells co-transfected, lysed 24 h after transfection in modified RIPA (150 mM NaCl, 50 mM Tris pH 7.5, 1% NP-40); GFP-BRCA1 precipitated for GFP (GFP-Trap agarose beads), blot anti-HA; with or without K-Ras12V or mutant Her2 (V659E)

Binder | binding
B1 | binds
B2 | binds
